Data: the supplement of paper PMC12819154, “High-throughput peptide-centric local stability assay extends protein–ligand identification to membrane proteins, tissues and bacteria” (Nature Structural & Molecular Biology, 2025)
The list shows a part of the results. Most entries show no effect beyond the scatter of the controls.

Chains of the proteins cited; added tags and fusions are not shown. Lines headed by an entry give the natural chain unless they say otherwise; changes in a name come on top.
UniProt Q8R5M8: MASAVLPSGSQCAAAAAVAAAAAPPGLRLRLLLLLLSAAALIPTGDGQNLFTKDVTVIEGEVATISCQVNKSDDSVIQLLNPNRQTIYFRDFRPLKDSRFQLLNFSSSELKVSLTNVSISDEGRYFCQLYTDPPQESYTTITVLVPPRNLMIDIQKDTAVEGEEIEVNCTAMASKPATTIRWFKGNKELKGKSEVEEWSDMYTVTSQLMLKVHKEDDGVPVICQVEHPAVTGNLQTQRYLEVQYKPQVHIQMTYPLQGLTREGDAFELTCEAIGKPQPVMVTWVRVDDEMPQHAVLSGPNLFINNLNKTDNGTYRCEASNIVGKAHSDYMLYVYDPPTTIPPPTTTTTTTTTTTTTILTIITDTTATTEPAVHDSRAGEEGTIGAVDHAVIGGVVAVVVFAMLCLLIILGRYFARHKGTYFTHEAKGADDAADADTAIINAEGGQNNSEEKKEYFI
UniProt Q8R4N0: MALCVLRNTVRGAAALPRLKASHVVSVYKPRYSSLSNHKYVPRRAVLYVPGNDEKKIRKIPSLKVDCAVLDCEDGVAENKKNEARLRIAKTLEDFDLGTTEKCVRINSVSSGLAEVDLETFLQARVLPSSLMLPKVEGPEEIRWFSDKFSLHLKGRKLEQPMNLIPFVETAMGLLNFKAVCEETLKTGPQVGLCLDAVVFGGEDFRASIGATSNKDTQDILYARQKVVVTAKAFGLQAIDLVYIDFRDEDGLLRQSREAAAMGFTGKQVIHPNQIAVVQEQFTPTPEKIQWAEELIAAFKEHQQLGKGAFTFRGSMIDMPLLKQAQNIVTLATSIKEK
UniProt Q8CI32: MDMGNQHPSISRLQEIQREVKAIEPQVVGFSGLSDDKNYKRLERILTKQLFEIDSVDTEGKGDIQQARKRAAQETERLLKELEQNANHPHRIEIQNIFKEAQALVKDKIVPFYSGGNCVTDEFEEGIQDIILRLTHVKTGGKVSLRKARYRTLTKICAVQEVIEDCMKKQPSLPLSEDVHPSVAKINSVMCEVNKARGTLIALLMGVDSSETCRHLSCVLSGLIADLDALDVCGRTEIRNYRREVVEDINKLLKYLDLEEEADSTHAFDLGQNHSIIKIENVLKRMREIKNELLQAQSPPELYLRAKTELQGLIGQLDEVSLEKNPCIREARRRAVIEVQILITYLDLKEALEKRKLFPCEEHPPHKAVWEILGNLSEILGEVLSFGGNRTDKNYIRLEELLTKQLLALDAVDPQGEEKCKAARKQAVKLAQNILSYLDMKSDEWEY
UniProt Q8R0V5: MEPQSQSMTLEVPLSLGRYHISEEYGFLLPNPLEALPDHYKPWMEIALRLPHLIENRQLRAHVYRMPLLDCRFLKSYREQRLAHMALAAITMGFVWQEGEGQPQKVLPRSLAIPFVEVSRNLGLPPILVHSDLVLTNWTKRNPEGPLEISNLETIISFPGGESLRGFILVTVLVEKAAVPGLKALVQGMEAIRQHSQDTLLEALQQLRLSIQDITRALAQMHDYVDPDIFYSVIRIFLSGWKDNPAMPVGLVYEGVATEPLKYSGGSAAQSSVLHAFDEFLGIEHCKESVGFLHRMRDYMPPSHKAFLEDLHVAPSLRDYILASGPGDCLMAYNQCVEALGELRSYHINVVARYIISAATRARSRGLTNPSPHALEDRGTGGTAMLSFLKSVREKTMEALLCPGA
UniProt Q8CIF6: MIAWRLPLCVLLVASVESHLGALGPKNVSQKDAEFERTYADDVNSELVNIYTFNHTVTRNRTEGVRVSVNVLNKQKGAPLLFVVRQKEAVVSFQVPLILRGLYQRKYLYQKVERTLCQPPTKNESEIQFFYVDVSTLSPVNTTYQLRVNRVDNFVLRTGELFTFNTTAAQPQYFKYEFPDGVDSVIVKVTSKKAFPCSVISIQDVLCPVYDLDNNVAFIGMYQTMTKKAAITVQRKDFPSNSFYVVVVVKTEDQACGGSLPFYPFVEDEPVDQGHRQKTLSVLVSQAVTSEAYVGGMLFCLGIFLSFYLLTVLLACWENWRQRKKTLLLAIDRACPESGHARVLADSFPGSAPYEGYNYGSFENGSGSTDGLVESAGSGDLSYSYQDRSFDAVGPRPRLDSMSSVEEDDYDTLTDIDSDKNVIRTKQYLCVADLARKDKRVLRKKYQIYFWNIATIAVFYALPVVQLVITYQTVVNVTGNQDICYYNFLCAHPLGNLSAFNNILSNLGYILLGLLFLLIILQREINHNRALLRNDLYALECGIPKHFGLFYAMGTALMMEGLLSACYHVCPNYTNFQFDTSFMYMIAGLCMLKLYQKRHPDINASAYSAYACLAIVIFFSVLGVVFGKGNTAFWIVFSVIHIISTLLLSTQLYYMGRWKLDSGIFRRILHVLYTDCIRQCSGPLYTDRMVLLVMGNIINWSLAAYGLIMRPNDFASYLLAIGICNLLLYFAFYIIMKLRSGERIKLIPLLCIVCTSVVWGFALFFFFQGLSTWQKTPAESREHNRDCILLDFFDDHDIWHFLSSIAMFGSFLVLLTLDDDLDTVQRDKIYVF
UniProt Q8VCE2, whole entry: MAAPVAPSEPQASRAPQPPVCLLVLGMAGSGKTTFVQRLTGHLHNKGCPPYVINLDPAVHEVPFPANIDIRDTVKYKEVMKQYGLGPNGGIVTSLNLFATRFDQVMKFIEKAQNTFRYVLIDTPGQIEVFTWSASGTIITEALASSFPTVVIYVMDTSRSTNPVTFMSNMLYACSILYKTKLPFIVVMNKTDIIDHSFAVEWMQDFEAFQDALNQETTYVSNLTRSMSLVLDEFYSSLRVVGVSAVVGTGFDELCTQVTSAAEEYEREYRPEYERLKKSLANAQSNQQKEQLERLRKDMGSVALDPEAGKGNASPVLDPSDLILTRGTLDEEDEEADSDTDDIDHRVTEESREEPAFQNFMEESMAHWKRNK
UniProt Q8K2V1: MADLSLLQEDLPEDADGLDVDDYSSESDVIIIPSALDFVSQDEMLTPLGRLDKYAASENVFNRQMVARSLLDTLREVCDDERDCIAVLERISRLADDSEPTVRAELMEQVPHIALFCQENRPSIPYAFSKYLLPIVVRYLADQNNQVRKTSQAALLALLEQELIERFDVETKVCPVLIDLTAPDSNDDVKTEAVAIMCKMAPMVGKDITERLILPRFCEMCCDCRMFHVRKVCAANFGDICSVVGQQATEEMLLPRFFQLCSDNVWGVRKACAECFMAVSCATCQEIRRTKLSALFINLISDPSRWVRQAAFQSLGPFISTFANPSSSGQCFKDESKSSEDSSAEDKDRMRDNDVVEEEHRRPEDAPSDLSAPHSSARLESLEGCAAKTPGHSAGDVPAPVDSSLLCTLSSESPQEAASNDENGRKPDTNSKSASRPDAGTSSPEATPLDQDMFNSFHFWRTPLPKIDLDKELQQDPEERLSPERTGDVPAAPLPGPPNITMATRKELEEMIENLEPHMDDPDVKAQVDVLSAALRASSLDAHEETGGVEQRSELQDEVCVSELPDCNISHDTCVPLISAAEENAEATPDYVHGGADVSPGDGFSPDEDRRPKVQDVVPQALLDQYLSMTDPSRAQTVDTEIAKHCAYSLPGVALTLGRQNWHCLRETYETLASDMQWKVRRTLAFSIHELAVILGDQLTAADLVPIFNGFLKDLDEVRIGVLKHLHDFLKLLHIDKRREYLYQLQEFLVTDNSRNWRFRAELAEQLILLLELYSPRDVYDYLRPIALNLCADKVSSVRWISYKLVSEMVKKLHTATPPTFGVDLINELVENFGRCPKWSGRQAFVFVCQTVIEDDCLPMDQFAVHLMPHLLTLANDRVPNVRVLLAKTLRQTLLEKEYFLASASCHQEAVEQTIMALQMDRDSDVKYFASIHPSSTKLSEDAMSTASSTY
UniProt Q8VBT9: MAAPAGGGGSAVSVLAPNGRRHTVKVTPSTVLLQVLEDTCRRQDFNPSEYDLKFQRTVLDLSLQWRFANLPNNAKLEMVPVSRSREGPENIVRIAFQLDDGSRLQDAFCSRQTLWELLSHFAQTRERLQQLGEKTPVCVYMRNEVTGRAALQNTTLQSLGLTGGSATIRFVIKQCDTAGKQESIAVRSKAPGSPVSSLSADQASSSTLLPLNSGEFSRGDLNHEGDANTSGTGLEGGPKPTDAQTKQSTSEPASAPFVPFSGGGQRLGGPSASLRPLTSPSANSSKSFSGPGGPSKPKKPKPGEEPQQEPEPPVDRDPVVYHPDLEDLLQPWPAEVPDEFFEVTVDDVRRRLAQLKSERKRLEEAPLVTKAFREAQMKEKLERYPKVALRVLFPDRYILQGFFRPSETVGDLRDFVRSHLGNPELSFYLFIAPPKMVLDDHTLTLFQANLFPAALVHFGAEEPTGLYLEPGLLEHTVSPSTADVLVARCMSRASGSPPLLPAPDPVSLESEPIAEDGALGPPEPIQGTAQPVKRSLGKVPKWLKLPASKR
UniProt Q8R3L2: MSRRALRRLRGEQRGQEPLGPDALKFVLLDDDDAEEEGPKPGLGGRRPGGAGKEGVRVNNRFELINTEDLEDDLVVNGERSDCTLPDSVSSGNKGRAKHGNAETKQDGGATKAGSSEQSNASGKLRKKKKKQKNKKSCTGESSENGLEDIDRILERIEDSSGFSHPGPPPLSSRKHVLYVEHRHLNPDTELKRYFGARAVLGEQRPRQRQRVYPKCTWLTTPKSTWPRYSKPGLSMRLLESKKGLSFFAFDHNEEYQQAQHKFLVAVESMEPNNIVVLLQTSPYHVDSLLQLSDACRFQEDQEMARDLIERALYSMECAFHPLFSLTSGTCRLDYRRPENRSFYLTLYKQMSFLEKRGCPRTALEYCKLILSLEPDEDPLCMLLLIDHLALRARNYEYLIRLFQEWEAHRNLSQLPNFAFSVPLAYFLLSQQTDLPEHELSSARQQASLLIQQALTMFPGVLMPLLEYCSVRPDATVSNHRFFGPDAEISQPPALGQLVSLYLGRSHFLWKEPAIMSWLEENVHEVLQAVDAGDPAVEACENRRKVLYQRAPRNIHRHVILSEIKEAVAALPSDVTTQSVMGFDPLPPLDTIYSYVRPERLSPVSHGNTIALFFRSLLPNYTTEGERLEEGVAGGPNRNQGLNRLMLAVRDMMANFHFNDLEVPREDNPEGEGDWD
UniProt Q8K1R7: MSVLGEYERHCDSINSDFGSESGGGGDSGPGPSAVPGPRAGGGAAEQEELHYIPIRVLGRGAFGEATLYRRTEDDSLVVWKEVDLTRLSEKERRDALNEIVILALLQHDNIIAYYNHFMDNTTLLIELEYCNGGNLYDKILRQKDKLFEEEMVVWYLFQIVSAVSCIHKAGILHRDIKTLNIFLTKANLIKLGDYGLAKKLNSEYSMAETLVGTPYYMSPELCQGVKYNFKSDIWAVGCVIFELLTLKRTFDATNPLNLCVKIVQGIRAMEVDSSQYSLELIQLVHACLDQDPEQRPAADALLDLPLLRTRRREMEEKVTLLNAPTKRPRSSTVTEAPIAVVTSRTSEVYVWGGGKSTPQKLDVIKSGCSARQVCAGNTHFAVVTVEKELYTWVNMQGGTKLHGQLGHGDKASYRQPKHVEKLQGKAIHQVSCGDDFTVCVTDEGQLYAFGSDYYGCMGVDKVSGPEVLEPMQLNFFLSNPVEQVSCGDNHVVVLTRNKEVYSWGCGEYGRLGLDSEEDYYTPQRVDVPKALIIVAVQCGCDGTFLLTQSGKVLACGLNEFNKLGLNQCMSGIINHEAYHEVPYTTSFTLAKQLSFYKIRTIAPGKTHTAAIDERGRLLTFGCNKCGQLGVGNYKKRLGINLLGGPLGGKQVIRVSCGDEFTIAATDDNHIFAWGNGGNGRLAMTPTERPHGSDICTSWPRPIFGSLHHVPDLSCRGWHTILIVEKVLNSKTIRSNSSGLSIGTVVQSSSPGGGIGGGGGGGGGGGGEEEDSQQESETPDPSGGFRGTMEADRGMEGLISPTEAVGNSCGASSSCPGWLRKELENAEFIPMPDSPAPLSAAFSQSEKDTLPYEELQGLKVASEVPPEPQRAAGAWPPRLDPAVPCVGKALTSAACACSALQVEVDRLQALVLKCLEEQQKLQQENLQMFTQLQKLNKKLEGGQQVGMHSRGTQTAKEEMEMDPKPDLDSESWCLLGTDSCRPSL
UniProt Q8CHT0: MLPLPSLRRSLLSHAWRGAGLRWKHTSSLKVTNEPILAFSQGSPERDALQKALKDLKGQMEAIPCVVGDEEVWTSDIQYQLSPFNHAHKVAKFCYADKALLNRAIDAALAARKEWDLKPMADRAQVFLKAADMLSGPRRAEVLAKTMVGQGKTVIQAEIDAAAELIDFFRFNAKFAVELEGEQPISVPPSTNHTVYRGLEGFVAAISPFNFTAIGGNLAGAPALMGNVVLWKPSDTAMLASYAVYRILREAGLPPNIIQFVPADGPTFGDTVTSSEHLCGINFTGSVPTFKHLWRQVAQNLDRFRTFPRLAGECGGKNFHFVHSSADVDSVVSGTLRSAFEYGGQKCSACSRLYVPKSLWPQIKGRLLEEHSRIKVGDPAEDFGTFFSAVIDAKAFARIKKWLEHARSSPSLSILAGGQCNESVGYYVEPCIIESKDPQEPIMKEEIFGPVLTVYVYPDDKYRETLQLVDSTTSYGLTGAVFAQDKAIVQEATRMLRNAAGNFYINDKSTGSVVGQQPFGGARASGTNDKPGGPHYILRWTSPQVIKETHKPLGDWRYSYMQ

compound: CN[C@@H]1C[C@H]2O[C@@](C)([C@@H]1OC)n1c3ccccc3c3c4c(c5c6ccccc6n2c5c31)C(=O)NC4 [staurosporine]; experiment: log2 fold change of pooled soluble protein (PISA), ligand vs vehicle (log2 ratio); higher = more thermally stabilized; conditions: ligand concentration: 20 uM; assay format: PISA pool 52.9/55.5/58.6 C

Target	log2 fold change of pooled soluble protein
UniProt Q8K273	-0.112
UniProt Q8R5M8	0.178
UniProt Q8R4N0	-0.00243
UniProt Q8VC19	0.215
UniProt Q8K3J9	0.0222
UniProt Q8CHT1	-0.163
UniProt Q8CI32	0.0804
UniProt Q8R0V5	0.286
UniProt Q8VCF0	-0.168
UniProt Q8CIF6	-0.115
UniProt Q8CJG0	-0.124
UniProt Q8JZN5	-0.0565
UniProt Q8CH40	-0.171
UniProt Q8JZU0	0.0359
UniProt Q8VCE2	0.0527
UniProt Q8K0B2	-0.089
UniProt Q8K2C7	0.0539
UniProt Q8K2H2	-0.218
UniProt Q8K2V1	0.1

A few values from the entries so far.
log2 fold change of pooled soluble protein with UniProt Q8VCE2 reads 0.0527
log2 fold change of pooled soluble protein with UniProt Q8JZU0 reads 0.0359

(cont.)

Target	log2 fold change of pooled soluble protein
UniProt Q8R2U0	0.348
UniProt Q8R0F9	0.0497
UniProt Q8R3E3	0.215
UniProt Q8K0D5	0.068
UniProt Q8R550	-0.027
UniProt Q8VBT9	0.107
UniProt Q8CHQ9	-0.0528
UniProt Q8K2Z2	0.16
UniProt Q8VCC1	-0.0788
UniProt Q8R519	0.133
UniProt Q8R1H0	0.155
UniProt Q8VCL5	0.0193
UniProt Q8R3P0	0.143
UniProt Q8R2Y2	-0.0882
UniProt Q8R3L2	0.0439
UniProt Q8K1R7	0.288
UniProt Q8K0L2	-0.00267
UniProt Q8CHT0	-0.0748
